The list shows a part of the results.
compound: CC1=C(SC2=C1C(=N[C@H](C3=NN=C(N32)C)CC(=O)N)C4=CC=C(C=C4)Cl)C; experiment: log2 fold change, soluble protein after heating vs DMSO (PISA); higher = thermal stabilisation; K562 cells, 10 uM, 30 min; active = over 0.2 and 3.5 SD of the protein, either way, in both replicates (recomputed)
How it was run: (§1)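 Values are thermal stability changes relative to control samples and are taken from duplicates. They are stated as log2 fold changes. Before quantification by TMTpro 16plex LC-MS/MS with equalised channel sums, K562 cells at 2×10^6 cells/mL were treated with 10 μM compound for 30 min, heated in aliquots for 3 min across 48°C-58°C, pooled, extracted in PBS with 0.5% NP-40 at 4°C, and centrifuged at 21,000xg for 90 min to give the soluble supernatant.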

The chains behind the UniProt entries cited, without tags or fusion partners. Where a name states a change or a piece, a line headed by the entry shows the natural chain unless it says otherwise.
UniProt Q86WR0: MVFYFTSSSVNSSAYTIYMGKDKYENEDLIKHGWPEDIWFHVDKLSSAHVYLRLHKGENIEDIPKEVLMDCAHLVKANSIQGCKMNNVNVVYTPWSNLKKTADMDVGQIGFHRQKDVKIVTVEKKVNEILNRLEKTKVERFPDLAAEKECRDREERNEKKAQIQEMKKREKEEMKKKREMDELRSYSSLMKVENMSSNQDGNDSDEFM
UniProt Q9BV29: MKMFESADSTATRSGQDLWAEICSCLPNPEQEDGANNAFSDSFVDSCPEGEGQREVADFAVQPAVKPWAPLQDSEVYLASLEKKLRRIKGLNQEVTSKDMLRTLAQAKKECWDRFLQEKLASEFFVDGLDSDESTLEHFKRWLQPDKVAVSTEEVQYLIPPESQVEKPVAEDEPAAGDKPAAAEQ
UniProt P04040: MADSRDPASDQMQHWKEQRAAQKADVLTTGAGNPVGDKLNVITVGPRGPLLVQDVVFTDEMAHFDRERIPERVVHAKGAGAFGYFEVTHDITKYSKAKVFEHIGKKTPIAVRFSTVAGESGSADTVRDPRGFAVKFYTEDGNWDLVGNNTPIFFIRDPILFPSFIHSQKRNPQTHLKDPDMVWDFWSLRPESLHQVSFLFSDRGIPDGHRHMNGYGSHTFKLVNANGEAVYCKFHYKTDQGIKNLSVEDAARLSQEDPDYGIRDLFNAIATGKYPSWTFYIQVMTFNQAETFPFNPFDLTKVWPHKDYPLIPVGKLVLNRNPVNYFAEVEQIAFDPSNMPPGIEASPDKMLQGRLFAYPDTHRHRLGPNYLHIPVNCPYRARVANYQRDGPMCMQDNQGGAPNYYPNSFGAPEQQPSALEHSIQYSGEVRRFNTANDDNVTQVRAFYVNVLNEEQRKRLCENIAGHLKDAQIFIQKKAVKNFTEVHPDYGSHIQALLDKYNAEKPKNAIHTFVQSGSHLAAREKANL
UniProt Q6PK04: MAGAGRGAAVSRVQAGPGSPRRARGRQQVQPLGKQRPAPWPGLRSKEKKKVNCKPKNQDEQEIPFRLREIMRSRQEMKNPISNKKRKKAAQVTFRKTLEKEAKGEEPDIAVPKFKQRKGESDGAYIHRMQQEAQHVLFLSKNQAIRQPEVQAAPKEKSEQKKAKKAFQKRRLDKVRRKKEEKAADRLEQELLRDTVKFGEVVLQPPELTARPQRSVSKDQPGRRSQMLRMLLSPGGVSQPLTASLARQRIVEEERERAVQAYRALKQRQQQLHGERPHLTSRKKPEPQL
UniProt Q8N163, whole entry, looked up: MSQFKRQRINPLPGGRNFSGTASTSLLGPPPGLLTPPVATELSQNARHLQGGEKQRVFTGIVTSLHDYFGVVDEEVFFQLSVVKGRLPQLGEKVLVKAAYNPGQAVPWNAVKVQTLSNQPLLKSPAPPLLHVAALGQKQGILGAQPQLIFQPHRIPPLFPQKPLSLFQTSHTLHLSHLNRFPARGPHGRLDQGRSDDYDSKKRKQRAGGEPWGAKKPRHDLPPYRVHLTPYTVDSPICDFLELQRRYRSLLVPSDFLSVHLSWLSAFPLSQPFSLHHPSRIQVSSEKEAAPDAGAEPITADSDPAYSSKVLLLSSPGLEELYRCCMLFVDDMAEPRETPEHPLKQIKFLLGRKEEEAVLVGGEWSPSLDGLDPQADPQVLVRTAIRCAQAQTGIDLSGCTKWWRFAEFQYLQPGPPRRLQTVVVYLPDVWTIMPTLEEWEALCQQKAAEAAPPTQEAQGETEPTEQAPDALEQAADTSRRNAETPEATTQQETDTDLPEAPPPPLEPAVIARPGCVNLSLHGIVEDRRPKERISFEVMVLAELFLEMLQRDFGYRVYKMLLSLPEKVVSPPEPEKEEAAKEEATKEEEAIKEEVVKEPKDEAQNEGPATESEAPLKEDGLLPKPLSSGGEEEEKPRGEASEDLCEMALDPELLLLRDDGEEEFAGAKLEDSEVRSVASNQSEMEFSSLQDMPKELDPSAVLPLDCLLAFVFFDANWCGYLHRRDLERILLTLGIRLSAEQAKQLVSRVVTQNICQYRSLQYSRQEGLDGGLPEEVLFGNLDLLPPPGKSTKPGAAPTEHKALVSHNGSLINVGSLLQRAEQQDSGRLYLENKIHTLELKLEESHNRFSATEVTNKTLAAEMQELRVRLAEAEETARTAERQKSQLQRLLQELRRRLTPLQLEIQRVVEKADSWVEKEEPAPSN
UniProt Q08722, whole entry, looked up: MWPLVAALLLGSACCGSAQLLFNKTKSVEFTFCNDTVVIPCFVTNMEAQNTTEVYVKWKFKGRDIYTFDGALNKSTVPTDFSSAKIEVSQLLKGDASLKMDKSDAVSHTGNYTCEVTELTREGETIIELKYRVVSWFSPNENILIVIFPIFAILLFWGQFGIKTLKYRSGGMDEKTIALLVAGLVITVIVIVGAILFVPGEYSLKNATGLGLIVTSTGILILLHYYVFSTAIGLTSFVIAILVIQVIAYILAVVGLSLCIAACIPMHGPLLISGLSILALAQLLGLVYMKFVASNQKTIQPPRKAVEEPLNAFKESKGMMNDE
UniProt Q5T0F9: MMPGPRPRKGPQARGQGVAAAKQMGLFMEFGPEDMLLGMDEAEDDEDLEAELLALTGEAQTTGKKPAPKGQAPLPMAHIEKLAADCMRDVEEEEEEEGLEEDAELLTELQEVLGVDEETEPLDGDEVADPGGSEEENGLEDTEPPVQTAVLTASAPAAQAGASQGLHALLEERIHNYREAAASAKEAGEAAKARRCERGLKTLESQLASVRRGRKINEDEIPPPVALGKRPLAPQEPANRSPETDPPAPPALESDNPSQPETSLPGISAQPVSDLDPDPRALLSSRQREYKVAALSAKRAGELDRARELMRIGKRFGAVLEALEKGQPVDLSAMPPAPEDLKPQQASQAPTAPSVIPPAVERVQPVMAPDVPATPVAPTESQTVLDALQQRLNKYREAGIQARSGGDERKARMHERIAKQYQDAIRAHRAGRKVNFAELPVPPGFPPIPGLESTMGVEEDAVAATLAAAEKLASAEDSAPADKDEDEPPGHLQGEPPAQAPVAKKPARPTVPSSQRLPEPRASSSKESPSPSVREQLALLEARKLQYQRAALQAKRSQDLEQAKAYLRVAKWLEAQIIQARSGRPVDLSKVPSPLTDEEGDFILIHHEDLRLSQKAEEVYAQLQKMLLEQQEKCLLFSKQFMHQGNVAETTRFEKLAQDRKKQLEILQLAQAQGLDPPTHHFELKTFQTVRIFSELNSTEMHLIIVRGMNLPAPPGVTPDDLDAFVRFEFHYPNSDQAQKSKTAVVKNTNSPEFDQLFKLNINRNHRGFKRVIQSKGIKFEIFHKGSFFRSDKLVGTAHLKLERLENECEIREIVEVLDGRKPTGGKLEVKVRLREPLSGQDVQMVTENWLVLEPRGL
UniProt Q96CT7: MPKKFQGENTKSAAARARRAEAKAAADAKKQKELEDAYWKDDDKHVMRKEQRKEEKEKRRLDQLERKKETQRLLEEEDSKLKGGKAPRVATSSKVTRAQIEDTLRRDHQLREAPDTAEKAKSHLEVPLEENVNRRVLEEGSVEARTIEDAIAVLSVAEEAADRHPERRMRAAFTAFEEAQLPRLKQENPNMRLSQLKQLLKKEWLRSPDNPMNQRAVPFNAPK
UniProt Q9P031: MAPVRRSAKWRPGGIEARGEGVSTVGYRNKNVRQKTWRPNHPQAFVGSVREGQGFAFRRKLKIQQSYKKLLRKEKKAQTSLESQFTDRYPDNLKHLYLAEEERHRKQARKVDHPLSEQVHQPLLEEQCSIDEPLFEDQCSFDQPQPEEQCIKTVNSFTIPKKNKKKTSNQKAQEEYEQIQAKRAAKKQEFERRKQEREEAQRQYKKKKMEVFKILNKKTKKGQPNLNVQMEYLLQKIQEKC
UniProt P45973, whole entry, looked up: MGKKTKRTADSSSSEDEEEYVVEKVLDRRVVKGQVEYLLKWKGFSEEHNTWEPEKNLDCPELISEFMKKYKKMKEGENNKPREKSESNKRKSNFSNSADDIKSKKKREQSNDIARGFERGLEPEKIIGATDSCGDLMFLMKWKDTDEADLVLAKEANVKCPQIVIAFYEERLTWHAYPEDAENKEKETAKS
UniProt P42574: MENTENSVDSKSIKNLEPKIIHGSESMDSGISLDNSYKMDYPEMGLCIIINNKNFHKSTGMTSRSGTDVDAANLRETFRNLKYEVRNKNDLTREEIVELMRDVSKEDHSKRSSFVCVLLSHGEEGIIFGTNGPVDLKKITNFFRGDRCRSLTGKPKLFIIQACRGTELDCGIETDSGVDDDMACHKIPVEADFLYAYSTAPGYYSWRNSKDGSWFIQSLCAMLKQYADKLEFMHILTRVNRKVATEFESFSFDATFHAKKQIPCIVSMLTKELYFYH
UniProt P48509: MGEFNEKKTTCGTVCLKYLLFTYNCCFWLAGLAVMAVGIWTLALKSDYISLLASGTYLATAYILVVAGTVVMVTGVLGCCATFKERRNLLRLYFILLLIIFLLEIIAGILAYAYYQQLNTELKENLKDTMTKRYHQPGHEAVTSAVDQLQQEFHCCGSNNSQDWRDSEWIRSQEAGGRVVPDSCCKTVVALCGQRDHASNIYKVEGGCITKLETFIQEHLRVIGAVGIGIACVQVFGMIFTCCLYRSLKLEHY
UniProt P20248, whole entry, looked up: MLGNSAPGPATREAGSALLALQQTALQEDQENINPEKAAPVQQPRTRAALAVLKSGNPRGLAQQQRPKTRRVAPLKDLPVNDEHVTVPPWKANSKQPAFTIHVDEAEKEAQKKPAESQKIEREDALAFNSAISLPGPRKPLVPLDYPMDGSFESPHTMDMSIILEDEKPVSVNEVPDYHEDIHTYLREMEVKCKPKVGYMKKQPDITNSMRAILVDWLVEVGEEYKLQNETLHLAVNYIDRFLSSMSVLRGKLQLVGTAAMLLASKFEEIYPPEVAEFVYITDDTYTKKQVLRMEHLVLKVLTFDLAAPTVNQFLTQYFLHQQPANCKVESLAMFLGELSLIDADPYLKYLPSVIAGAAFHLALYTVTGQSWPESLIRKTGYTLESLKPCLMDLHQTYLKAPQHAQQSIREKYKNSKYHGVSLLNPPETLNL
UniProt Q8N4S0: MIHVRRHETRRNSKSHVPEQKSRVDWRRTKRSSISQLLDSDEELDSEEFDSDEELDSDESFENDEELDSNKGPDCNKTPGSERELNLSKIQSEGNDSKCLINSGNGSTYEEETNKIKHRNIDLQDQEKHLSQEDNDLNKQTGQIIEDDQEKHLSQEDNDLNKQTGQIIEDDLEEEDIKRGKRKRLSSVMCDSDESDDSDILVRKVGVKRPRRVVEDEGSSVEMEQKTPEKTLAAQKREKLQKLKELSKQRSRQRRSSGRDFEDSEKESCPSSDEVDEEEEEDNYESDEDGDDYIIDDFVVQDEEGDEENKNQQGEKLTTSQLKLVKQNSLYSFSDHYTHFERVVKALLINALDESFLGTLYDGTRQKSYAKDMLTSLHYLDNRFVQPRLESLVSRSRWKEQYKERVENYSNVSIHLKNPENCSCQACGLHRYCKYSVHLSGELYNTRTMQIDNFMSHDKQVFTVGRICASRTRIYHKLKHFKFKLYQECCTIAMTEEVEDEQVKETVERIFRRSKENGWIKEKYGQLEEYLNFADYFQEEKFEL
UniProt P49368: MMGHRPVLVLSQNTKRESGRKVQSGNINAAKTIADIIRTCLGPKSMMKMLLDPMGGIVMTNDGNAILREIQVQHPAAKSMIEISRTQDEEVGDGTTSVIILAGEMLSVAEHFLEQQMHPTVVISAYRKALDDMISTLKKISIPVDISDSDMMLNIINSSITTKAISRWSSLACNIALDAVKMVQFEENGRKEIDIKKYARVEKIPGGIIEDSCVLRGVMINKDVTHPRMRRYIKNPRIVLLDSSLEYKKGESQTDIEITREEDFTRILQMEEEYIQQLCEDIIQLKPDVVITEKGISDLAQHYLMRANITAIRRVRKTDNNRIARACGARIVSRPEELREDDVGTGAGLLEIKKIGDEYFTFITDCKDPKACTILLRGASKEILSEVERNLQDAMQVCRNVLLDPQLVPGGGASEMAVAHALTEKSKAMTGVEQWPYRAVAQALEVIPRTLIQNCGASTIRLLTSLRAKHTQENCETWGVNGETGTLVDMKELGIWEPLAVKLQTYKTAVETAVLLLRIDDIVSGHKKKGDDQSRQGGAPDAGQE
UniProt Q96A33: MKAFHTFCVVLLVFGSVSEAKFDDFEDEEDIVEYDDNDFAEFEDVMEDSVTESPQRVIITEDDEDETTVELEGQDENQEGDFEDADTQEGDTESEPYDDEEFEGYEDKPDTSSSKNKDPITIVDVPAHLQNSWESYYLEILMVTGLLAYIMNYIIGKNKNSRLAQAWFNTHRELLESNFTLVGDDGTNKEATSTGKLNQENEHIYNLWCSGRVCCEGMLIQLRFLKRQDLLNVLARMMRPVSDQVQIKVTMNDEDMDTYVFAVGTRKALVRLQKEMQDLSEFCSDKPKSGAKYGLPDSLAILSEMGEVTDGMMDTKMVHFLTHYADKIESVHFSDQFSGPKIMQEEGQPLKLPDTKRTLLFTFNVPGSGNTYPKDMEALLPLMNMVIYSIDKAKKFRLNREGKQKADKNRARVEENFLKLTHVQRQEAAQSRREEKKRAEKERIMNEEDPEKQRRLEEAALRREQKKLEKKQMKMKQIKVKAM

Row | Target | log2 fold change
1 | CCDC25 (UniProt Q86WR0) | inactive: 0.032
2 | CCDC32 isoform 2 (UniProt Q9BV29) | inactive: 0.052
3 | CCT7 (UniProt Q99832) | inactive: -0.013
4 | CAT (UniProt P04040) | inactive: -0.002
5 | CCDC97 (UniProt Q96F63) | inactive: 0.038
6 | CCDC90B (UniProt Q9GZT6) | inactive: 0.052
7 | CD3EAP isoform 2 (UniProt O15446) | inactive: -0.037
8 | CCDC137 (UniProt Q6PK04) | inactive: -0.474
9 | CCAR2 isoform 2 (UniProt Q8N163) | inactive: -0.014
10 | CD47 (UniProt Q08722) | inactive: 0.005
11 | CDC27 isoform 2 (UniProt P30260) | inactive: -0.006
12 | CC2D1B isoform 2 (UniProt Q5T0F9) | inactive: 0
13 | CCDC124 (UniProt Q96CT7) | inactive: -0.047
14 | CCDC59 (UniProt Q9P031) | inactive: -0.177
15 | CCNH (UniProt P51946) | inactive: -0.035
16 | CCZ1 (UniProt P86791) | inactive: 0.009
17 | CCDC134 (UniProt Q9H6E4) | inactive: -0.014
18 | CBX5 (UniProt P45973) | inactive: 0.029
19 | CASP3 (UniProt P42574) | inactive: 0.004
20 | CD151 (UniProt P48509) | inactive: 0.049
21 | CCNA2 (UniProt P20248) | inactive: -0.016
22 | CCDC82 (UniProt Q8N4S0) | inactive: 0.056
23 | CCNY (UniProt Q8ND76) | inactive: -0.036
24 | CCT3 (UniProt P49368) | inactive: 0.018
25 | CD99L2 isoform 5 (UniProt Q8TCZ2) | inactive: 0.113
26 | CCDC115 (UniProt Q96NT0) | inactive: 0.008
27 | CD58 (UniProt P19256) | inactive: 0.017
28 | CCDC47 (UniProt Q96A33) | inactive: 0.075
29 | CDC37 (UniProt Q16543) | inactive: 0.015
30 | CBX3 (UniProt Q13185) | inactive: 0.033

compound: CC1=C2C(=CC=C1)N=C(N(C2=O)C3=CC=CC=C3C)CN4C=NC5=C(N=CN=C54)N; experiment: as above
How it was run: as §1

Row | Target | log2 fold change
31 | CCDC25 (UniProt Q86WR0) | inactive: 0.098
32 | CCDC32 isoform 2 (UniProt Q9BV29) | inactive: 0.076
33 | CCT7 (UniProt Q99832) | inactive: -0.013
34 | CAT (UniProt P04040) | inactive: 0.011
35 | CCDC97 (UniProt Q96F63) | inactive: 0.166
36 | CCDC90B (UniProt Q9GZT6) | inactive: 0.011
37 | CD3EAP isoform 2 (UniProt O15446) | inactive: -0.148
38 | CCDC137 (UniProt Q6PK04) | inactive: -0.395
39 | CCAR2 isoform 2 (UniProt Q8N163) | inactive: 0.079
40 | CD47 (UniProt Q08722) | inactive: -0.011
41 | CDC27 isoform 2 (UniProt P30260) | inactive: 0.028
42 | CC2D1B isoform 2 (UniProt Q5T0F9) | inactive: 0.052
43 | CCDC124 (UniProt Q96CT7) | inactive: -0.021
44 | CCDC59 (UniProt Q9P031) | inactive: -0.214
45 | CCNH (UniProt P51946) | inactive: 0.032
46 | CCZ1 (UniProt P86791) | inactive: 0.02
47 | CCDC134 (UniProt Q9H6E4) | inactive: -0.01
48 | CBX5 (UniProt P45973) | inactive: 0.05
49 | CASP3 (UniProt P42574) | inactive: -0.005
50 | CD151 (UniProt P48509) | inactive: 0.031
51 | CCNA2 (UniProt P20248) | inactive: -0.028
52 | CCDC82 (UniProt Q8N4S0) | inactive: 0.033
53 | CCNY (UniProt Q8ND76) | inactive: 0.078
54 | CCT3 (UniProt P49368) | inactive: -0.02
55 | CD99L2 isoform 5 (UniProt Q8TCZ2) | inactive: -0.145
56 | CCDC115 (UniProt Q96NT0) | inactive: -0.013
57 | CD58 (UniProt P19256) | inactive: 0.059
58 | CCDC47 (UniProt Q96A33) | inactive: 0.085
59 | CDC37 (UniProt Q16543) | inactive: 0.035
60 | CBX3 (UniProt Q13185) | inactive: 0.035
